Results taken from patent publication US5677283A, “α-heteroaryloxymethyl ketones as interleukin - 1 β converting enzyme inhibitors” (Sanofi, priority 1996, dated 1997).
Some results were stated once for a whole list of compounds, not compound by compound. At least one structure is not confirmed: it was looked up by name or label, or the drawing left a doubt.

Biological target: T1, IL-1β protease (Homo sapiens, UniProt P29466)
T1 sequence (P29466 120-297 limits assumed): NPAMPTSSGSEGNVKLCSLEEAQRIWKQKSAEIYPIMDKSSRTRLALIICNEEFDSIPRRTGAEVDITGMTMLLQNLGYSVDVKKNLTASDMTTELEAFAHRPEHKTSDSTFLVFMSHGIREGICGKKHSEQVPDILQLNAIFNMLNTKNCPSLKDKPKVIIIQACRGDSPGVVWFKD
T1 sequence (P29466 317-404 limits assumed): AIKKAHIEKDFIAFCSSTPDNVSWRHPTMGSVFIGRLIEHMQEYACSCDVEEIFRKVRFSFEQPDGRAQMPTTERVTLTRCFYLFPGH
Assay: IL-1β protease inhibition assay (HPLC, TRITC-AYVHDAPVRS-NH2 substrate)
Type: biochemical
Conditions: partially purified enzyme; 15 min preincubation with inhibitor at 37° C.; substrate 67 μM; 60 minutes at 37° C.

Compound | IC50
CC(C)[C@H](NC(=O)c1ccc(OCCN2CCOCC2)cc1)C(=O)N[C@@H](C)C(=O)N[C@@H](CC(=O)O)C(=O)COc1cc(C(F)(F)F)nn1-c1ccccc1 [Example 31, N-[4-(morpholinoethoxy)benzoyl]-L-valine-L-alanine-L-aspartic acid 5-(1-phenyl-3-trifluoromethyl)pyrazolyloxymethyl ketone] | < 10 µM
CS(=O)(=O)c1ccc(-n2nc(C(F)(F)F)cc2OCC(=O)[C@H](CC(=O)O)NC(=O)OCc2ccccc2)cc1 [Example 18, N-Benzyloxycarbonyl-L-aspartic acid 5-(1-(p-methanesulfonylphenyl)-3-trifluoromethyl)pyrazolyloxymethyl ketone] | < 10 µM
N-Benzyloxycarbonyl-L-aspartic acid 5-(1-(m.p-dichlorophenyl)-3-methyl)pyrazolyloxymethyl ketone [Example 13] | < 10 µM
